# Results taken from PubChem BioAssay AID595 (National Center for Advancing Translational Sciences (NCATS), 2007).
# Screen size: about 71,000 compounds; about 310 (0.44%) were called active. The inconclusive results got no clear call from the source; some entries with a clear call stand among them for comparison. Calls come from the whole dose curve; as a rule, active = well fitted curve in either direction with a large enough effect; inconclusive = small, poorly fitted or top-dose-only effect, or another doubt; inactive = flat fitted curve, though single readings scatter. Where the call is inconclusive, the potency comes from a doubtful curve fit.
# Test system: Hsp90 C-terminal peptide / TPR2A (Hop) interaction, human
# Test: qHTS Assay for Disrupters of an Hsp90 Co-Chaperone Interaction
# Conditions: AlphaScreen TPR2A-His6 binding biotin-Hsp90 C-terminal peptide; activity change, negative = inhibition: at 57 µM (top of the series) unless noted
# % is set by controls: 0 for no effect and ±100 for the full control effect; potency is the fitted concentration of half-maximal effect.
SMILES,"activity change, negative = inhibition",Potency
N#Cc1cccc(NC(=O)c2nc(-c3ccccc3)n(-c3ccccc3)n2)c1,inconclusive: 54.2%,–
COc1ccccc1-c1ccc2ncnc(N3CCN(C)CC3)c2c1,inconclusive: 85%,–
CCCOC(=O)C1=C(C)NC2=C(C(=O)CCC2)C1c1cccs1 (stereo not given),inconclusive: 69.8%,–
CCCCc1ccc(-c2ccc(C)cc2O)nc1,–,"inconclusive: 20 µM [activator, partial curve]"
Cc1nc2cnc(N3CCOCC3)nc2n(Cc2cccs2)c1=O,inactive: -2.12%,–
N#CC1=C2C=CC=CN2CC1=O,–,"inconclusive: 31.6 µM [inhibitor, single point]"
CCCN(S(=O)(=O)c1ccc(OCC)cc1)S(=O)(=O)c1cccs1,–,"inconclusive: 31.6 µM [activator, single point]"
COc1ccc2[nH]c(=O)c(CN(Cc3ccccc3OC)Cc3nnnn3CC3CCCO3)cc2c1 (stereo not given),inactive: -3.08%,–
O=C(O)c1cc2c(cc1S(=O)(=O)O)[C@H]1[C@@H]([C@H]3[C@H]2[C@@]2(Cl)C(Cl)=C(Cl)[C@]3(Cl)C2(Cl)Cl)[C@]2(Cl)C(Cl)=C(Cl)[C@@]1(Cl)C2(Cl)Cl,inactive: -2.75% [at 11 µM],–
O=C(c1ccco1)[C@@H]1[C@@H]2C(=O)N(c3ccccc3)C(=O)[C@@H]2C2c3ccccc3C=CN21 (stereo not given in full),inconclusive: 7.21%,–
Cc1ccc(NC(=O)C2CCCN(S(=O)(=O)c3cnc[nH]3)C2)c(Br)c1 (stereo not given),inconclusive: 49.3%,–
CCOc1cc(N2CCOCC2)c(OCC)cc1NC(=O)CN1C(=O)NC(Cc2ccccc2)C1=O (stereo not given),inactive: -2.94%,–
Cc1noc(/C=C/N(C)C)c1S(=O)(=O)N1CCCC(C(=O)NCc2ccc(F)cc2)C1 (stereo not given),inconclusive: 34.6%,–
CCCC(C(=O)NC1CCCCC1)N(CC1CCCO1)C(=O)CNS(=O)(=O)c1ccc(F)cc1 (stereo not given),inconclusive: 63.2%,–
COc1ccc(C)cc1S(=O)(=O)N1CCN(c2cccc(C(F)(F)F)c2)CC1,inconclusive: 89.9%,–
Cc1cc(SCc2ccccc2)nc(=O)[nH]1,inconclusive: 39.5%,–
CCCCn1c2c(c3ccccc31)CCc1nonc1-2,inconclusive: 44.5% [at 2.3 µM],–
O=C1CSC(=O)N1CC(O)COc1ccc(Cl)cc1 (stereo not given),inconclusive: 50.1% [at 11 µM],–
O=c1cc(NCc2ccccc2)c2ccccc2o1,inconclusive: 40.8%,–
COc1ccc(OCc2nnc3n2N=C(c2ccc(OC)cc2)CS3)cc1,inactive: -5.19% [at 2.3 µM],–
COc1cc(/C=C(\C#N)C(=O)c2ccc(O)c(O)c2)cc(I)c1O,–,"inconclusive: 12.6 µM [inhibitor, partial curve]"
Cc1sc(NC(=O)CSc2nc(N)n(CC(=O)c3ccccc3)n2)c(C#N)c1C,inactive: -8.44%,–
Nc1c(S(=O)(=O)O)cc(S(=O)(=O)O)c2ccc(N=Nc3ccccc3)c(O)c12,–,"inconclusive: 3.16 µM [inhibitor, single point]"
O=C(/C=N/O)NCCCn1ccnc1,–,"inconclusive: 25.1 µM [inhibitor, partial curve]"
Nc1cc(-c2cccc(F)c2)nn1S(=O)(=O)c1cccc2nsnc12,–,"inconclusive: 25.1 µM [inhibitor, partial curve]"

SMILES,"activity change, negative = inhibition",Potency
Cc1ccc2cccc(S(=O)(=O)Nc3ccc4c(c3)OCO4)c2n1,–,"inconclusive: 15.8 µM [inhibitor, partial curve]"
CC(=O)c1ccc([N+](=O)[O-])cc1,inactive: -4.49%,–
Cc1ccc(C)c(N(C)C(=O)COc2cc(=O)n(C)c3ccccc23)c1,inconclusive: 49.2%,–
COc1ccc(-c2csc3c2[N+]2=CCC=C2C3=O)cc1,inactive: -11.4% [at 11 µM],–
Cc1onc(-c2ccccc2)c1C(=O)Nc1ccc2c(c1)OCO2,inactive: -2.17%,–
CCN1CCN(Cc2cc(=O)oc3ccc(Cl)cc23)CC1,inconclusive: 45.2%,–
COc1cccc(CNCc2ccccn2)c1OC,–,"inconclusive: 3.98 µM [inhibitor, single point]"
COCC(=O)Nc1c(I)c(C(=O)NC[C@@H](O)CO)c(I)c(C(=O)N(C)C[C@@H](O)CO)c1I,inconclusive: 69.7% [at 26 µM],–
CC(=O)CCc1ccccc1,inconclusive: 52.5%,–
Clc1ccc2[nH]c3c(NCC4CCCO4)ncnc3c2c1 (stereo not given),inactive: -4.17%,–
c1ccc(CCc2ccccc2-c2nc(-c3cccnc3)no2)cc1,–,"inconclusive: 25.1 µM [activator, single point]"
CCNc1ncc2nc(C)c(=O)n(CCc3ccccc3)c2n1,inactive: -0.26%,–
C=CCn1c(Cc2csc(N)n2)nnc1SCC(=O)OCC,–,"inconclusive: 25.1 µM [inhibitor, partial curve]"
COc1ccc(OC)c(C(=O)c2coc3ccc(OC)cc23)c1,inconclusive: 68.5%,–
COc1ccc(N2C(=O)C(Cl)=C(N3CCN(Cc4ccccc4)CC3)C2=O)cc1,–,"inconclusive: 25.1 µM [inhibitor, single point]"
O=C(CSc1nc2ccccc2s1)c1sc2sc3ccccc3[n+]2c1O,–,"inconclusive: 3.98 µM [inhibitor, single point]"
CCOC(=O)c1c(NC(=O)CSc2n[nH]c(N)n2)sc(CC)c1C,inactive: 0.507%,–
O=C(NC1=NCCS1)C12CC3CC(C1)CC(C(=O)NC1=NCCS1)(C3)C2,–,"inconclusive: 31.6 µM [inhibitor, single point]"
CCOC(=O)Cn1c(=O)c2c(nc3n2CCCCN3c2ccc(OCC)cc2)n(C)c1=O,inconclusive: 37%,–
c1ccc(-n2cnc3cc(NCc4ccncc4)ccc32)cc1,inconclusive: 19.9%,–
O=C(O)c1ccc2cc[nH]c2c1,inactive: -1.59%,–
C=CCn1c(=N)n(CC(O)c2ccco2)c2ccccc21 (stereo not given),inactive: -5.03%,–
CCOc1ccc(S(=O)(=O)N2CCN(c3ccc(C)cc3C)CC2)cc1,–,"inconclusive: 31.6 µM [activator, single point]"
O=c1c(CCc2ccccc2)nc2cnc(N3CCNCC3)nc2n1Cc1ccc(F)cc1,inactive: -3.87%,–
COC(=O)[C@@H]1[C@H]2C[C@H]3c4[nH]c5cc(OC)ccc5c4CCN3C[C@@H]2C[C@@H](OC(=O)c2cc(OC)c(OC)c(OC)c2)[C@@H]1OC,–,"inconclusive: 31.6 µM [inhibitor, partial curve]"

# Compounds above that contain a cyano group, in the order listed:
SMILES,"activity change, negative = inhibition",Potency
N#Cc1cccc(NC(=O)c2nc(-c3ccccc3)n(-c3ccccc3)n2)c1,inconclusive: 54.2%,–
N#CC1=C2C=CC=CN2CC1=O,–,"inconclusive: 31.6 µM [inhibitor, single point]"
COc1cc(/C=C(\C#N)C(=O)c2ccc(O)c(O)c2)cc(I)c1O,–,"inconclusive: 12.6 µM [inhibitor, partial curve]"
Cc1sc(NC(=O)CSc2nc(N)n(CC(=O)c3ccccc3)n2)c(C#N)c1C,inactive: -8.44%,–
